Reference: paper doi:10.1101/2025.09.17.676719
No constants are given. Whether binding was seen depends on the method and setting. Binding seen in cells or lysates may run through a third protein. Some binding calls cover weakened binding; strength is not graded here. For some assays here: Where a sequence is shown, tags or fusion partners need not be part of it.

Chains of the proteins cited; added tags and fusions are not shown.
UniProt Q6PD10: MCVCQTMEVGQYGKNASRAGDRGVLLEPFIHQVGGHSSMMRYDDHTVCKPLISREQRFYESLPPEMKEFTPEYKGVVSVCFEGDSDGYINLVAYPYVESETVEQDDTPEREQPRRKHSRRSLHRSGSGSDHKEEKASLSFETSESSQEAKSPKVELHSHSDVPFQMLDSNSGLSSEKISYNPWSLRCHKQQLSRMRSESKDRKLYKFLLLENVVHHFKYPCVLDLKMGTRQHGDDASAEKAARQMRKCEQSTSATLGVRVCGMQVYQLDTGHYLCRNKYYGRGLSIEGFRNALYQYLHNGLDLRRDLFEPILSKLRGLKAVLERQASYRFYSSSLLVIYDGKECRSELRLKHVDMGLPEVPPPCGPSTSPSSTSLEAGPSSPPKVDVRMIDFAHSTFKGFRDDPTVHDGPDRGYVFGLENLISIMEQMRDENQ
UniProt Q9UHH9: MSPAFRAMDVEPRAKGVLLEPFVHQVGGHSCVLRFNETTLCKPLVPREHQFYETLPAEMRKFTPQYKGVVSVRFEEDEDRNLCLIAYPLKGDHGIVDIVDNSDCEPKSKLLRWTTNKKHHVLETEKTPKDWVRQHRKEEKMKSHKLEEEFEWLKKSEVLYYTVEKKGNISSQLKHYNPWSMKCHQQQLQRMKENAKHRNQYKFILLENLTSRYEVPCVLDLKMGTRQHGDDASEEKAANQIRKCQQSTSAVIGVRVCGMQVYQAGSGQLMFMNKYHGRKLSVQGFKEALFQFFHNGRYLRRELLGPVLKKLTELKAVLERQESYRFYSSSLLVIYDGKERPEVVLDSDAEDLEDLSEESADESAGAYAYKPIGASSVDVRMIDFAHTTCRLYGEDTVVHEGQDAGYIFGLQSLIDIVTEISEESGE
UniProt Q92551: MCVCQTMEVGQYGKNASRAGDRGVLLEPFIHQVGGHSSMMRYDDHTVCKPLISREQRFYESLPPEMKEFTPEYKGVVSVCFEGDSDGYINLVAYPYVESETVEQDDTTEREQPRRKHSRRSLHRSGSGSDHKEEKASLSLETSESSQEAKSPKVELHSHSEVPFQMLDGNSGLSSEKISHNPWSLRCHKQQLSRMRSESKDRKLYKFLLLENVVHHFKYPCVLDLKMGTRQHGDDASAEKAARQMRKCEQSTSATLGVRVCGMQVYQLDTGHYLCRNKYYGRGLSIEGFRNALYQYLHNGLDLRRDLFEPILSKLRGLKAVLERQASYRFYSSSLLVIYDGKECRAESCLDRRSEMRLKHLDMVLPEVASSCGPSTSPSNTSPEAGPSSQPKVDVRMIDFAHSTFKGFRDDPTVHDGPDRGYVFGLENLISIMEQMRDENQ

T1: myc-tagged human IP6K3 (human) (UniProt Q96PC2)
T1 sequence: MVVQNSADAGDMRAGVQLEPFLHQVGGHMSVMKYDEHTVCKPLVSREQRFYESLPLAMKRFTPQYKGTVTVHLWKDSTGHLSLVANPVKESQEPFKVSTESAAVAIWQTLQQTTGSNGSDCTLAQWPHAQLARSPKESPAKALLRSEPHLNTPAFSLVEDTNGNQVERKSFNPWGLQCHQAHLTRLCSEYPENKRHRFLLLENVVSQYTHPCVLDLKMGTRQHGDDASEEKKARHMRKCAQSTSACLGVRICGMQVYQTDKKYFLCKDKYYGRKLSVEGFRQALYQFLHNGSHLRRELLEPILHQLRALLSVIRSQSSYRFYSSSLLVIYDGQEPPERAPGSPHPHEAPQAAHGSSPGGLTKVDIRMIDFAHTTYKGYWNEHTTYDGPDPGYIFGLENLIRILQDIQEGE

B1: mouse Syndecan-4 (SDC4) tagged C-terminally with mCherry (protein, UniProt O35988 24-198)
chain: ESIRETEVIDPQDLLEGRYFSGALPDDEDAGGSDDFELSGSGDLDDTEEPRPFPEVIEPLVPLDNHIPENAQPGIRVPSEPKELEENEVIPKRAPSDVGDDMSNKVSMSSTAQGSNIFERTEVLAALIVGGVVGILFAVFLILLLVYRMKKKDEGSYDLGKKPIYKKAPTNEFYA
B2: endogenous Syndecan-4 (SDC4) of AGS cells (protein, UniProt P31431 19-198)
chain: ESIRETEVIDPQDLLEGRYFSGALPDDEDVVGPGQESDDFELSGSGDLDDLEDSMIGPEVVHPLVPLDNHIPERAGSGSQVPTEPKKLEENEVIPKRISPVEESEDVSNKVSMSSTVQGSNIFERTEVLAALIVGGIVGILFAVFLILLLMYRMKKKDEGSYDLGKKPIYKKAPTNEFYA

Assays:
[1] = target: GST-tagged mouse IP6K1 (mouse) (UniProt Q6PD10); test: pull-down
[2] = target: myc-tagged human IP6K2 (human) (UniProt Q9UHH9); test: co-IP
[3] = target: T1, myc-tagged human IP6K3 (human); test: co-IP
[4] = target: myc-tagged mouse IP6K1 (mouse) (UniProt Q6PD10); test: co-IP
[5] = target: endogenous IP6K1 of AGS cells (human (endogenous in AGS)) (UniProt Q92551); test: co-IP

Binder	binding [1]	binding [2]	binding [3]	binding [4]	binding [5]
B1	binds	no binding	no binding	binds	
B2					binds
